Measured values: doi:10.1101/2023.06.25.546467
Numbering of substitutions follows the chain as printed. Numbers in names are those of the source. No constants are given. Whether binding was seen depends on the method and setting. Some entries that bind do so weakly or less than the wild type. Each block holds one binder with its values, some of them ahead of it.

Target: T1, Ubc13 (S. cerevisiae) (UniProt P52490)
T1 sequence: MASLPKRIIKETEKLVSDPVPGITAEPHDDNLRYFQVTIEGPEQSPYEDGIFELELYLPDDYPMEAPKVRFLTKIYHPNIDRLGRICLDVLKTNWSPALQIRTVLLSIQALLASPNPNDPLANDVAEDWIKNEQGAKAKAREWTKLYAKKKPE
Assay: two-hybrid

binding: binds
B1: Rad5 (protein, UniProt P32849 1-1169)
chain: MSHIEQEERKRFFNDDLDTSETSLNFKSENKESFLFANSHNDDDDDVVVSVSDTTEGEGDRSIVPVRREIEEEGQNQFITELLRIIPEMPKDLVMELNEKFGSQEEGLSLALSHYFDHNSGTSISKIPSSPNQLNTLSDTSNSTLSPSSFHPKRRRIYGFRNQTRLEDKVTWKRFIGALQVTGMATRPTVRPLKYGSQMKLKRSSEEISATKVYDSRGRKKASMASLVRIFDIQYDREIGRVSEDIAQILYPLLSSHEISFEVTLIFCDNKRLSIGDSFILQLDCFLTSLIFEERNDGESLMKRRRTEGGNKREKDNGNFGRTLTETDEELESRSKRLALLKLFDKLRLKPILDEQKALEKHKIELNSDPEIIDLDNDEICSNQVTEVHNNLRDTQHEEETMNLNQLKTFYKAAQSSESLKSLPETEPSRDVFKLELRNYQKQGLTWMLRREQEFAKAASDGEASETGANMINPLWKQFKWPNDMSWAAQNLQQDHVNVEDGIFFYANLHSGEFSLAKPILKTMIKGGILSDEMGLGKTVAAYSLVLSCPHDSDVVDKKLFDIENTAVSDNLPSTWQDNKKPYASKTTLIVVPMSLLTQWSNEFTKANNSPDMYHEVYYGGNVSSLKTLLTKTKTPPTVVLTTYGIVQNEWTKHSKGRMTDEDVNISSGLFSVNFYRIIIDEGHNIRNRTTVTSKAVMALQGKCKWVLTGTPIINRLDDLYSLVKFLELDPWRQINYWKTFVSTPFESKNYKQAFDVVNAILEPVLLRRTKQMKDKDGKPLVELPPKEVVIKRLPFSKSQDLLYKFLLDKAEVSVKSGIARGDLLKKYSTILVHILRLRQVCCHPGLIGSQDENDEDLSKNNKLVTEQTVELDSLMRVVSERFDNSFSKEELDAMIQRLKVKYPDNKSFQSLECSICTTEPMDLDKALFTECGHSFCEKCLFEYIEFQNSKNLGLKCPNCRNQIDACRLLALVQTNSNSKNLEFKPYSPASKSSKITALLKELQLLQDSSAGEQVVIFSQFSTYLDILEKELTHTFSKDVAKIYKFDGRLSLKERTSVLADFAVKDYSRQKILLLSLKAGGVGLNLTCASHAYMMDPWWSPSMEDQAIDRLHRIGQTNSVKVMRFIIQDSIEEKMLRIQEKKRTIGEAMDTDEDERRKRRIEEIQMLFE

binding: binds
B2: Rad5 E783D (protein, UniProt P32849 1-1169)
chain: B1 chain with E783D
